# Hit rate of the full screen: of about 400,000 compounds, about 13,000 (3.2%) were called active. Inconclusive results, whose numbers are uncertain, are shown with a selection of clear calls. Calls follow the shape of the dose curve; as a rule, active = well fitted cell-killing curve with a large enough effect; inconclusive = small, poorly fitted or top-dose-only effect, or effect the other way; inactive = flat fitted curve, though single readings scatter. Where the call is inconclusive, the potency comes from a doubtful curve fit.
# Assay: qHTS assay for MDR1-selective chemotherapeutics: Primary screen using the drug-selected MDR subline cells KB-V1; also: nearly all actives have a fitted effect of over 60% in size
# Conditions: KB-V1 MDR cells viability, CellTiter-Glo, 72 h; series mostly up to 46.1 µM
# Summary of the method: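 Potencies derive from concentration-effect curves fitted to normalized luminescence (CellTiter-Glo) of KB-V1 cells treated for 72 h at 37 degrees C in phenol-red-free DMEM containing 10% FBS.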
# Potency is read from the fitted curve at half-maximal effect.
row,SMILES,Potency
1,N#C/C(=C\c1cccc(Br)c1)C(=O)N1CCCCC1,"inconclusive: 29.1 µM [cytotoxic, single point]"
2,COc1ccc(-c2nn(-c3ccccc3)cc2/C=N/NC(=O)c2cccc(S(=O)(=O)Nc3ccccc3OC)c2)cc1,inactive
3,COc1ccccc1N1CCN(C(=O)c2ccc(Cl)c(S(=O)(=O)N3CCCC3)c2)CC1,"inconclusive: 29.1 µM [cytotoxic, single point]"
4,CC(=O)Nc1cccc(-c2nc3ccc(NC(C)=O)cc3[nH]2)c1,"inconclusive: 29.1 µM [rising, single point]"
5,Fc1ccc(CSc2nc3ncccc3[nH]2)cc1,"inconclusive: 18.4 µM [cytotoxic, single point]"
6,COc1ccc(N=c2oc3c(OC)cccc3cc2C(=O)NCc2ccco2)cc1OC,"inconclusive: 0.731 µM [cytotoxic, full curve]"
7,CCN(CC)CCNC(=O)c1cc(-c2ccc(Br)s2)nc2ccccc12,"inconclusive: 18.4 µM [cytotoxic, partial curve, poor fit]"
8,Cc1ccccc1OCC(=O)Nc1ccccc1-c1ccccc1NC(=O)COc1ccccc1C,"inconclusive: 29.1 µM [cytotoxic, single point]"
9,CNC(=S)NCc1ccc2[nH]c3c(c2c1)CCCC3,"inconclusive: 29.1 µM [rising, single point]"
10,COc1ccccc1/C=C/c1cncc(/C=C/c2ccccc2OC)c1,inactive
11,Cc1nn(CC(=O)NCCCN2CCN(Cc3ccccc3)CC2)c(=O)c2cc(-c3ccccc3)nn12,inactive
12,Nc1ccc2nc(SCC(=O)Nc3ccc(N4CCOCC4)c(Cl)c3)sc2c1,"inconclusive: 29.1 µM [cytotoxic, single point]"
13,Cc1cc(C(=O)Nc2c(F)cc(F)cc2Br)c(C)o1,"inconclusive: 20.6 µM [cytotoxic, single point]"
14,Cc1ccc(C)c(CSc2ccc3nnc(CCNS(=O)(=O)c4ccccc4)n3n2)c1,inactive
15,COc1cccc(C(=O)N2CCCc3ccccc32)c1OC,inactive
16,O=C1CCN(Cc2ccccc2)S(=O)(=O)c2ccccc21,"inconclusive: 13 µM [rising, partial curve]"
17,COc1ccc(CCN2C(=O)CC(N3CCN(C/C=C/c4ccccc4)CC3)C2=O)cc1OC (stereo not given),"inconclusive: 8.2 µM [cytotoxic, partial curve]"
18,Cc1ccn2c(Nc3ccc(F)cc3)c(-c3ccccn3)nc2c1,"inconclusive: 0.731 µM [cytotoxic, full curve, poor fit]"
19,Cc1ccc(C(C)NC(=O)/C(C#N)=C\c2c(C)[nH]c3ccccc23)cc1 (stereo not given),active: 11.6 µM
20,COc1ccc(OC)c(Nc2ncnc3c2cnn3-c2cccc(Cl)c2)c1,"inconclusive: 4.61 µM [cytotoxic, full curve, poor fit]"
21,COc1cc(-c2nnc(COC(=O)c3cc(C)nc4ccc(C)cc34)o2)cc(OC)c1OC,"inconclusive: 20.6 µM [cytotoxic, single point]"
22,CCOC(=O)c1c(NC(=O)c2ccc(S(=O)(=O)N3CCOCC3)cc2)sc2c1CCN(C(C)C)C2,inactive
23,CCCCN(C)Cc1c(C)[nH]c2ccccc2c1=O,"inconclusive: 7.31 µM [cytotoxic, partial curve]"
24,COc1cccc(N2CCN(S(=O)(=O)c3c(C)[nH]c(C)c3C(=O)N3CCCC3)CC2)c1,inactive

row,SMILES,Potency
1,Cc1ccc(C)c(SCC(=O)NC(=O)NCc2ccccc2)c1,"inconclusive: 18.4 µM [cytotoxic, single point]"
2,CCN(CC(=O)Nc1ccccc1OC)C(=O)/C=C/c1cccs1,inactive
3,O=C(N/N=C1/CC2CCC1C2)c1cc2ccccc2cc1O (stereo not given),inactive
4,Cc1cccc(C)c1NC(=O)C1C(c2ccccc2)=Nc2ccccc2N1C(=O)c1cnccn1 (stereo not given),inactive
5,COc1cc(/C=C/C(=O)OCC(=O)Nc2cccc(Oc3ccccc3)c2)ccc1O,"inconclusive: 29.1 µM [cytotoxic, single point]"
6,Cc1cccc(NC(NC(=O)c2ccccc2[N+](=O)[O-])C(Cl)(Cl)Cl)c1 (stereo not given),active: 23.1 µM
7,CCOC(=O)c1sc2nc(SCC(=O)NCc3ccco3)n(Cc3ccccc3)c(=O)c2c1C,"inconclusive: 1.46 µM [cytotoxic, full curve]"
8,Cc1c([N+](=O)[O-])cc(C(=O)Oc2ccc(Br)cc2C(=S)N2CCCCC2)cc1[N+](=O)[O-],"inconclusive: 14.6 µM [cytotoxic, partial curve]"
9,CSc1ccccc1NC(=O)Nc1cccc(Cl)c1C,inactive
10,COc1ccc2oc(C(=O)OCC(=O)Nc3ccc(C(=O)N(C)C)cc3)c(C)c2c1,"inconclusive: 29.1 µM [rising, single point]"
11,Cc1cc(/C=C(/C#N)c2cccc(F)c2)c(C)n1-c1cccnc1,inactive
12,O=C(CSc1nnc(-c2cccc(S(=O)(=O)N3CCCC3)c2)n1-c1ccccc1)Nc1cccc(C(=O)O)c1,"inconclusive: 16.4 µM [rising, single point]"
13,O=C(NC(=S)N1CCN(c2ccc(F)cc2)CC1)c1ccccc1,"inconclusive: 29.1 µM [cytotoxic, single point]"
14,O=C1CC(c2ccccc2F)c2cc3c(cc2N1)CCC3 (stereo not given),active: 13 µM
15,Cc1c(C(=O)N(Cc2cccs2)C2CCS(=O)(=O)C2)oc2ccccc12 (stereo not given),active: 6.51 µM
16,Cc1ccc(S(=O)(=O)NCCC(=O)N2CC(C)OC(C)C2)cc1 (stereo not given),inactive
17,CN(C(=O)c1ccc(S(=O)(=O)N(C)C)cc1)c1ccc2ccccc2c1,inactive
18,Cn1ccc2c(-c3ccc(C(C)(C)C)cc3)cc3c(c21)C1CCC3O1 (stereo not given),"inconclusive: 20.6 µM [cytotoxic, single point]"
19,Cc1ccc(S(=O)(=O)Oc2ccc(/C=N/NC(=O)c3cccnc3)cc2)cc1,"inconclusive: 3.26 µM [cytotoxic, partial curve, poor fit]"
20,CCCC(=O)N1CC(=O)Nc2ccc(Cl)cc2C1c1ccccc1 (stereo not given),inactive
21,CCO[C@@H]1OC(C(=O)Nc2ccccc2)=C[C@H](c2ccc(Br)cc2)[C@H]1CCCO,inactive
22,O=C(Nc1ccc(Cl)cc1)c1ccc(-n2cncn2)c([N+](=O)[O-])c1,"inconclusive: 20.6 µM [cytotoxic, single point]"
23,N#CCCN(C(=O)CCl)c1cccc(Cl)c1,"inconclusive: 23.1 µM [cytotoxic, single point]"
24,COc1ccc(S(=O)(=O)NCC(c2ccc(N(C)C)cc2)N2CCc3ccccc32)cc1 (stereo not given),inactive

row,SMILES,Potency
1,COC(=O)[C@@]1(C)[C@H]2C(=O)N(Cc3ccccc3)C(=O)[C@H]2[C@H]2CN=C(SCC(=O)c3ccccc3)N21,inactive
2,O=C(CCc1ccccc1)Nc1cc(Cl)ccc1O,"inconclusive: 16.4 µM [cytotoxic, partial curve, poor fit]"
3,Cn1c2nc(=O)n(-c3ccccc3)c(=O)c-2nc2c1CCCC2,inactive
4,COc1ccc(Cl)cc1C(=O)NCCCSc1ccccc1,inactive
5,CNC(=O)c1cc2c(=O)n3cccc(C)c3nc2n(C(C)C)c1=N,inactive
6,CCCCc1nnc(NC(=O)CN(C)S(=O)(=O)c2ccc(C)cc2)s1,inactive
7,C#CCN(C[C@H]1[C@H](OC(=O)NCC2CCCCC2)[C@H](OC(=O)NCC2CCCCC2)C[C@@H](C(=O)OC)[C@H]1C(=O)OC)S(=O)(=O)c1ccc(C)cc1,inactive
8,CCN(CC(=O)NCc1ccc(F)cc1)C(=O)/C=C/c1ccc(S(=O)(=O)N(CC)CC)cc1,"inconclusive: 29.1 µM [cytotoxic, single point]"
9,Cn1c(=O)c2cc(NC(=O)CCc3cccc(Cl)c3)ccc2n1Cc1cccc(C(F)(F)F)c1,inactive
10,C=CCNC(=O)NC(=O)COC(=O)/C(C#N)=C/c1cc(C)n(CCC(C)C)c1C,"inconclusive: 10.3 µM [cytotoxic, single point]"
11,Cc1ccc(C)c(N2CN(Cc3cccnc3)CNC2=S)c1,"inconclusive: 11.6 µM [cytotoxic, partial curve]"
12,CCOCCn1c(CN2CCN(c3cccc(Cl)c3)CC2)nc2c1c(=O)n(C)c(=O)n2C,inactive
13,COc1cc(CNCCSc2nnnn2C)cc(Br)c1OCc1ccc(F)cc1,"inconclusive: 0.58 µM [cytotoxic, single point]"
14,COc1ccc(S(=O)(=O)NCC2CCCN(Cc3ccc(O)cc3)C2)cc1 (stereo not given),"inconclusive: 29.1 µM [rising, single point]"
15,Cc1ccc(S(=O)(=O)N2CCCCC2)cc1NC(=O)Cn1ccc(C(F)(F)F)n1,"inconclusive: 16.4 µM [cytotoxic, partial curve]"
16,Cc1ccc2c(=O)cc(C(=O)Nc3ccc(S(=O)(=O)Nc4nc(C)cc(C)n4)cc3)oc2c1,inactive
17,O=C(Nc1ccccc1-c1nc2ccccc2s1)C1=COCCO1,"inconclusive: 13 µM [cytotoxic, partial curve, poor fit]"
18,Cc1ccc(-n2[nH]c(C)c(C=Nc3ccc(S(=O)(=O)Nc4nccs4)cc3)c2=O)cc1C,"inconclusive: 23.1 µM [cytotoxic, single point]"
19,COc1ccc(/C=C2\CN(Cc3ccccc3)C/C(=C\c3ccc(OC)cc3OC)C2=O)c(OC)c1,"inconclusive: 29.1 µM [cytotoxic, single point]"
20,CCN(CC(=O)Nc1ccc(OC)cc1)C(=O)c1ccc(=O)n(Cc2ccccc2)n1,active: 18.4 µM
21,CCCC(=O)Nc1ccccc1Sc1ncnc2scc(-c3ccccc3)c12,"inconclusive: 18.4 µM [cytotoxic, partial curve]"
22,c1ccc(COc2ncnc3c2ncn3CCCNCC(c2ccccc2)c2ccccc2)cc1,"inconclusive: 25.9 µM [cytotoxic, partial curve, poor fit]"

# Three compounds out of the list, sorted by molar mass, high to low:
row,SMILES,Potency
8,CCN(CC(=O)NCc1ccc(F)cc1)C(=O)/C=C/c1ccc(S(=O)(=O)N(CC)CC)cc1,"inconclusive: 29.1 µM [cytotoxic, single point]"
16,Cc1ccc2c(=O)cc(C(=O)Nc3ccc(S(=O)(=O)Nc4nc(C)cc(C)n4)cc3)oc2c1,inactive
22,c1ccc(COc2ncnc3c2ncn3CCCNCC(c2ccccc2)c2ccccc2)cc1,"inconclusive: 25.9 µM [cytotoxic, partial curve, poor fit]"

# — PubChem BioAssay AID1347076 (National Center for Advancing Translational Sciences (NCATS), 2019)
